Measured values published in paper PMC12313696.
For at least one entry, the source does not settle the construct or the ends of the probe. At least one verdict was read from the data and is not stated in words by the source.

Sequences of proteins named here, by UniProt entry; tags and fusion partners are left off. A change or cut given only in a name is not applied to a line headed by its entry.
UniProt P15692: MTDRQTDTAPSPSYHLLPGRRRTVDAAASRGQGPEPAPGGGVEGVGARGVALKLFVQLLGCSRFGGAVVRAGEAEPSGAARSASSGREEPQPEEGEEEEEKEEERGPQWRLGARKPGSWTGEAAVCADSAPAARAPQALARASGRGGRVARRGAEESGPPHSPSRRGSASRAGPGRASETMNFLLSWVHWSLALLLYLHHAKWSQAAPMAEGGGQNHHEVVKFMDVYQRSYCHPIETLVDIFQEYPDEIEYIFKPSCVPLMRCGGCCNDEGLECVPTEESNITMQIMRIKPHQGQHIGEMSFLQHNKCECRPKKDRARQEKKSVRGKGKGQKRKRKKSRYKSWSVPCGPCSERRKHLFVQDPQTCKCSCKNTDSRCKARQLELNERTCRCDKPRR

Target: VEGF (UniProt P15692)
Experiment: SERS competition sensor (aptamer displaced from surface duplex by VEGF)
Settings: Au TOH capture substrate, Au@Pd NR ssDNA1 probe, TMB/H2O2 read-out, LOD 0.11 pg/mL is not an affinity; duplex hybridized in 8 mM phosphate, 0.8 mM MgCl2, 20 mM NaCl; VEGF in serum; PBS wash; TMB read-out at pH 4.5 (sodium acetate), 30 C, 14 min; native protein; single-stranded DNA

Sequence: TTTTTTTTTTGTGGGGGTGGACGGGCCGGGTAGA [VEGF aptamer]
- binding result: binds
